Hit rate of the full screen: of about 320,000 compounds, about 22,000 (6.9%) were called active. The shares of active, inactive and inconclusive entries below differ from those in the screen. Calls follow the shape of the dose curve; as a rule, active = well fitted inhibition curve with a large enough effect; inconclusive = small, poorly fitted or top-dose-only effect, or another doubt; inactive = no such curve, though single readings can be large or run the other way. Potencies beside an inconclusive call are fits to weak or partial responses and may not hold up.
assay: Primary qHTS for delayed death inhibitors of the malarial parasite plastid, 96 hour incubation; conditions: P. falciparum luciferase reporter growth; series mostly up to 28.7 µM; activity change, negative = inhibition: at the top concentration
Outline: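 P. falciparum expressing integrated firefly luciferase grown in erythrocytes (2% hematocrit, 0.05% parasitemia final) with compounds for 96 hours at 37 C, 5% CO2. Growth inhibition read as loss of luminescence after adding luciferase detection reagent.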
% is scaled to controls: 0 for no effect and ±100 for the full control effect; potency is read from the fitted curve at half-maximal effect.

Row | Compound | Potency | activity change, negative = inhibition
1 | CC(C)C[C@@H]1NC(=O)[C@H](C(C)C)NC(=O)c2cc([N+](=O)[O-])cc(I)c2NCC[C@@H](C(N)=O)NC1=O | active: 2.08 µM | –
2 | O=C(CC1Nc2ccccc2NC1=O)NCCc1ccccc1 (stereo unspecified) | inconclusive: 16.5 µM [inhibitor, single point] | –
3 | c1ccc(CNc2nc(-c3ccccn3)nc3ccccc23)cc1 | active: 0.657 µM | –
4 | CCC(=O)N1CCN(c2ccc(NC(=S)NC(=O)c3cccc([N+](=O)[O-])c3)cc2)CC1 | active: 7.38 µM | –
5 | Cc1ccccc1-n1ccnc1SCC(=O)NCC1CCCO1 (stereo unspecified) | inconclusive: 18.5 µM [inhibitor, single point] | –
6 | Cc1cccc(/C=C/c2onc(C)c2S(=O)(=O)N2CCC(C(=O)N3CCCCC3)CC2)c1 | inconclusive: 8.28 µM [inhibitor, partial curve] | –
8 | C/C(Cl)=C/CN1C(=O)C2C3C=CC(C3)C2C1=O (stereo unspecified) | inconclusive: 13.1 µM [inhibitor, single point] | –
9 | O=C(COC(=O)c1ccncc1)c1ccccc1 | inconclusive: 20.8 µM [inhibitor, partial curve, poor fit] | –
10 | CCOC(=O)Cn1c(=O)oc2cc(S(=O)(=O)N(C)c3cccc(C)c3)ccc21 | – | inactive: -1.87%
11 | Nc1nc(SCC(=O)Nc2ccc(Br)cc2F)n[nH]1 | inconclusive: 4.15 µM [inhibitor, partial curve, poor fit] | –
12 | COc1ccc(N2CCN(C(=O)/C=C/c3ccco3)CC2)cc1 | – | inactive: 15.1%
13 | Cc1ccc(C(=O)NC(=S)Nc2ccc(CN3CCCCC3)cc2)c(C)c1 | – | inactive: 0.153%
14 | Cc1nnc(SCC(=O)N(Cc2ccccc2)C(C)C)n1-c1ccccc1 | inconclusive: 9.28 µM [inhibitor, partial curve, poor fit] | –
15 | Cc1ccc(NS(=O)(=O)c2cccc(C(=O)NNC(=O)c3cccn3C)c2)c(C)c1 | – | inactive: 0%
16 | CCOc1ccc(CN(C)C(=O)[C@H](C)NC(=O)c2ccco2)cc1OC | – | inactive: 6.95%
17 | CC(C)C(=O)NC(=S)Nc1ccc(S(=O)(=O)N(C)Cc2ccccc2)cc1 | inconclusive: 4.15 µM [inhibitor, full curve] | –
18 | Brc1cc2ccccc2[n+](Cc2ccccc2)c1 | inconclusive: 18.5 µM [inhibitor, single point] | –
19 | FCCCOc1ccc(-c2nccc(-c3ccc(Br)cc3)n2)cc1 | – | inactive: 86.6%
20 | CN(CC(=O)Nc1ccc(F)c(F)c1F)C1CCCCC1 | – | inactive: 69.5%
21 | COc1ccccc1-n1cnnc1SCC(=O)NC1CCCC1 | – | inactive: 28.8%

An excerpt of these results, as labelled records.
CCOc1ccc(CN(C)C(=O)[C@H](C)NC(=O)c2ccco2)cc1OC
  activity change, negative = inhibition: inactive: 6.95%
CC(C)C(=O)NC(=S)Nc1ccc(S(=O)(=O)N(C)Cc2ccccc2)cc1
  Potency: inconclusive: 4.15 µM [inhibitor, full curve]
